In patent US20200199225A1:
Results are given in words; binding and its absence hold for the method and conditions named.

Biological target: CLL receptor reconstituted in RAMOS cells (own BCR deleted by CRISPR)
Assay: FACS on RAMOS cells reconstituted with the CLL receptor

binding: no binding
B1: AVA-mAb01 (antibody, V domains shown)
VH: QVQLQQSGPGLVQPSQSLSITCTVSGFSLTSYGIHWVRQSPGKGLEWLGVIWRGGGTDSNAAFMSRLSITKDNSKSQVFFKMNSLQADDTAIYYCARSRYDEEESMNYWGQGTSVTVSS
VL: QIVLTQSPASLSASVGETVTITCRASGNIHSYLAWYQQKQGKSPQLLVYNAKTLADGVPSRFSGSGSGTQYSLKINSLQPEDFGSYYCQHFWNTPPTFGAGTKLELK
